Data from PMC6449940, “The Cdc42 effectors Gic1 and Gic2 regulate polarized post-Golgi secretion” (Cell & Bioscience, 2019).
Results are given in words; binding and its absence hold for the method and conditions named. Binding seen in cells or lysates may run through a third protein. Some results given as binding are weak or reduced against the parent protein; the word gives no strength. Tags and fused reporters may be left off the sequences shown.

The chains behind the UniProt entries cited, without tags or fusion partners.
UniProt P38261: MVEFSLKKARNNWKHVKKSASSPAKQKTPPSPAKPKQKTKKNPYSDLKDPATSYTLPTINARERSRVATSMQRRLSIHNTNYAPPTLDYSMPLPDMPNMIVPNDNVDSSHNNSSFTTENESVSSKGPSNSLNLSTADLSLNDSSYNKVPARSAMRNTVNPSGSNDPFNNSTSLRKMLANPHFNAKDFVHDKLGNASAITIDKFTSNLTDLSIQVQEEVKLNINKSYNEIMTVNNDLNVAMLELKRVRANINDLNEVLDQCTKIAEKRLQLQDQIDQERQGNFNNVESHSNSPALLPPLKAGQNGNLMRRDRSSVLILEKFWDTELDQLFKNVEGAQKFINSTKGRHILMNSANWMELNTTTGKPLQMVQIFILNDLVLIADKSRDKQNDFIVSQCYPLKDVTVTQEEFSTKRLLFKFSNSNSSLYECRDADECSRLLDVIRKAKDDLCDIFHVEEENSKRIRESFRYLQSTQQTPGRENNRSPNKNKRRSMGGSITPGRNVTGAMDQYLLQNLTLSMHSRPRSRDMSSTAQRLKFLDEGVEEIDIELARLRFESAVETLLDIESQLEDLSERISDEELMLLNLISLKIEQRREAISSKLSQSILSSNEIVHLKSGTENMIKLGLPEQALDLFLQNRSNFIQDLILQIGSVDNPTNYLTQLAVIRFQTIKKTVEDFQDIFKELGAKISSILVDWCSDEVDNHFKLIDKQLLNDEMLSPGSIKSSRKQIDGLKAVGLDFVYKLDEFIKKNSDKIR

T1: GFP-tagged Gic2 (S. cerevisiae (budding yeast)) (UniProt Q06648)
T1 sequence: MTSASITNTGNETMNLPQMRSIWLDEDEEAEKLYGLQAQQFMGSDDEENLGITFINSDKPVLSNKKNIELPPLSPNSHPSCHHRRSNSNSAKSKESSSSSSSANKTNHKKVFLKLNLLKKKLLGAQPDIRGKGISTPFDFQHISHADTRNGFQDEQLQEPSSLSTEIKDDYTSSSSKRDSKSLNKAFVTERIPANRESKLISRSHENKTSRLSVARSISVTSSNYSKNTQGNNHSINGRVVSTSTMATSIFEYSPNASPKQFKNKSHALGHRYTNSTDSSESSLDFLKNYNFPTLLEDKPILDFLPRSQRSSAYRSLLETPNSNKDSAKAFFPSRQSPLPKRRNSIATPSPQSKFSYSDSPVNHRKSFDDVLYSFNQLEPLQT

B1: Sec8-myc (protein, UniProt P32855 1-1065)
chain: MDYLKPAQKGRRRGLSINSLSETQQSAMNSSLDHLQNDLNRINLQWNRILSDNTNPLELALAFLDDTSVGLGHRYEEFNQLKSQIGSHLQDVVNEHSQVFNTNVASYGKAVSSIMQAQEQTLNLKNCLKEANEKITTDKGSLQELNDNNLKYTKMIDVLVNIEELLQIPEKIEENIRKENFHQVQILLERGFILMNNKSLKTVEILKPINQQLELQEHLLFNNLIEEIHDIMYSKSNKTNFTRVTNNDIFKIISISHNGFTSLENYLYNIVNIDIMEHSKTINKNLEQFIHDQSLNKGNIMLQENAATQAPLAPSRNQENEGFNRIGFLLKTINNINKLPVAFNIITERAKEEIHNIIVKSTESIRSKHPSLLKMATSLKNDNHFGLPVQDILSIILRECFWEIFLKLLYAIQCHRAIFEMSNILQPTSSAKPAFKFNKIWGKLLDEIELLLVRYINDPELISSNNGSIKPINGATNNAPTLPKRKNPKIFSLEYNIEDNSSVKDQAFELKALLKDIFPGFSVSSNMDLDSIYVKDESFEQDEPLVPPSVFNMKVILDPFLLFTQSTSTIVPSVLTQNTISSLTFFDDYMNKSFLPKIQMTMDYLFTVEVESNNPYALELSDENHNIFKTALDFQRLFYNLLNVFNTANTFREKISYCILDLLNHFYNYYLGLFNSLIGTSDRHLTRKIITAWLQNGILMDQEQKILNGDETLFHEESIELFKEIPHFYQAGKGLSKSDLFNNLTLDTILQFSASVLWILNWLPGLKKAINIDEVSQEPMLDADRLRSSWTFSESMDLNYSNPSSSPNSLGNLKILLDDKASKKFDETIDGFKTLKFKLITILRFNIRALCIYDIGSFFQNTKIWNMDVGSIELDQNIASLISELRRTESKLKQQLPEKEKNSIFIGLDIVNNYALIKGAKSIKVLNHNGIKKMLRNVNVLQHAYRNLSSEPSKINMNVTMNFYSLCGSSEAELFEYIKDNELPHCSVEDLKTILRLQFSEEMHRQLKRQSTSSTKGSIKPSNKRYTEALEKLSNLEKEQSKEGARTKIGKLKSKLNAVHTANEK

Target: T1, GFP-tagged Gic2 (S. cerevisiae (budding yeast))
Assay: co-IP; yeast lysates; immunoprecipitation of Gic2-GFP with polyclonal anti-GFP antibody, blot with anti-myc monoclonal antibody

Molecule | binding
Exo84-myc (from UniProt P38261 1-753) | binds
B1 | binds
